# The list does not hold the whole screen: it gathers tests that were run many times, whatever their T/C, doses with no T/C, and many T/C values between a quarter and a half above the control. Other doses and runs of a compound stand elsewhere. T/C gives the treated animals as a percentage of the vehicle group. Some entries give survivors of the animals treated and no T/C: the source holds a T/C of zero for them, seemingly a mark for toxic or unscored doses. Some doses without a T/C left all or most animals alive at the check, yet need not have been tolerated: survival well below the control is almost never listed, so the zero probably covers shortened survival too. Counts of survivors are from the toxicity check (mostly the fifth day) where no day follows; animals may have died later. Schedule codes are those of the source, taken here to give the interval after Q, in days (D) or hours (H), and the number of doses after X. Some doses were run more than once; the results are listed from low to high. Some schedule codes hold Z or #, which are not explained here. For survival time, the PubChem record calls one and a half times the control and up active, and a quarter to a half above the control has no call in these data; cut-offs in other NCI protocols can differ.
# Test system: L1210 leukemia ip in BDF1 mice, survival T/C
# Assay: NCI In Vivo Anticancer Drug Screen. Data for tumor model L1210 Leukemia (intraperitoneal) in B6D2F1 (BDF1) mice
# Conditions: higher T/C = longer survival
# [1] = T/C endpoint: mean survival time, dose: 200.0 mg/kg/injection, schedule: Q01DX009 (ip), vehicle: saline with Tween-80
# [2] = T/C endpoint: mean survival time, dose: 400.0 mg/kg/injection, schedule: Q04DX003 (ip), vehicle: saline with Tween-80
# [3] = T/C endpoint: mean survival time, dose: 100.0 mg/kg/injection, schedule: Q01DX001 (ip), vehicle: other
# [4] = T/C endpoint: mean survival time, dose: 200.0 mg/kg/injection, schedule: Q01DX009 (ip), vehicle: Klucel (hydroxypropylcellulose) (HPC)
# [5] = T/C endpoint: mean survival time, dose: 400.0 mg/kg/injection, schedule: Q01DX009 (ip), vehicle: Klucel (hydroxypropylcellulose) (HPC)
# [6] = T/C endpoint: mean survival time, dose: 400.0 mg/kg/injection, schedule: Q01DX009 (ip), vehicle: saline with Tween-80
# [7] = T/C endpoint: mean survival time, dose: 300.0 mg/kg/injection, schedule: Q01DX001 (ip), vehicle: saline
# [8] = T/C endpoint: mean survival time, dose: 200.0 mg/kg/injection, schedule: Q01DX001 (ip), vehicle: saline
# [9] = T/C endpoint: mean survival time, dose: 100.0 mg/kg/injection, schedule: Q04DX002 (ip), vehicle: saline
# [10] = T/C endpoint: mean survival time, dose: 200.0 mg/kg/injection, schedule: Q04DX002 (ip), vehicle: saline
# [11] = T/C endpoint: mean survival time, dose: 400.0 mg/kg/injection, schedule: Q04DX002 (ip), vehicle: saline
# [12] = T/C endpoint: mean survival time, dose: 400.0 mg/kg/injection, schedule: Q04DX002 (ip), vehicle: saline with Tween-80
# [13] = T/C endpoint: mean survival time, dose: 150.0 mg/kg/injection, schedule: Q01DX001 (ip), vehicle: carboxymethylcellulose (CMC)
# [14] = T/C endpoint: mean survival time, dose: 300.0 mg/kg/injection, schedule: Q01DX001 (ip), vehicle: carboxymethylcellulose (CMC)
# [15] = T/C endpoint: mean survival time, dose: 100.0 mg/kg/injection, schedule: Q01DX009 (ip), vehicle: Klucel (hydroxypropylcellulose) (HPC)
structure (smiles),measurement,setting,value
NC(=O)NC(=O)/C=C/C(=O)O,survivor count,[1],3 of 6
same,survivor count,[2],2 of 6
CC1=C(/C=C/C(C)=C/C=C/C(C)=C/CO)C(C)(C)CCC1,T/C,[3],139 % of control
CC(=O)C(C)CCc1ccccn1 (stereo unspecified),survivor count,"T/C endpoint: mean survival time, dose: 500.0 mg/kg/injection, schedule: Q01DX Z (ip), vehicle: methylcellulose (MC)",0 of 6
O=C(O)COc1c(Br)cc(F)cc1Br,survivor count,"T/C endpoint: mean survival time, dose: 100.0 mg/kg/injection, schedule: Q04DX002 (ip), vehicle: other",3 of 3
NC(=O)c1[nH]nc(C2OC(CO)C(O)C2O)c1O (stereo unspecified),T/C,"T/C endpoint: mean survival time, dose: 1.25 mg/kg/injection, schedule: Q01DX009 (ip), vehicle: saline",135 % of control
same,T/C,"T/C endpoint: mean survival time, dose: 2.5 mg/kg/injection, schedule: Q04DX003 (ip), vehicle: saline",129 % of control
same,survivor count,"T/C endpoint: mean survival time, dose: 10.0 mg/kg/injection, schedule: Q01DX009 (ip), vehicle: saline",6 of 6
same,T/C,"T/C endpoint: mean survival time, dose: 10.0 mg/kg/injection, schedule: Q04DX003 (ip), vehicle: saline",141 % of control
same,T/C,"T/C endpoint: mean survival time, dose: 15.0 mg/kg/injection, schedule: Q04DX003 (ip), vehicle: saline",129 % of control
same,T/C,"T/C endpoint: median survival time, dose: 16.0 mg/kg/injection, schedule: Q04DX003 (ip), vehicle: saline, evaluated on day 5",139 % of control
same,T/C,"T/C endpoint: median survival time, dose: 16.0 mg/kg/injection, schedule: Q04DX003 (ip), vehicle: saline, evaluated on day 8",128 % of control
Clc1ccc(Cl)c(-c2csc(-c3ccncc3)n2)c1,survivor count,[4],1 of 6
same,survivor count,[5],0 of 6
O=C(Nc1cc(C(F)(F)F)ccc1Cl)c1cccc(C(=O)Nc2cc(C(F)(F)F)ccc2Cl)c1,survivor count,"T/C endpoint: mean survival time, dose: 100.0 mg/kg/injection, schedule: Q04DX003 (ip), vehicle: saline with Tween-80",6 of 6
same,survivor count,[2],5 of 6
CC(SC(C)c1ccccc1)c1ccccc1 (stereo unspecified),survivor count,[6],6 of 6
O=C(N/N=C\c1cc(Cl)ccc1[N+](=O)[O-])c1ccco1,survivor count,[3],4 of 4
same,survivor count,"T/C endpoint: mean survival time, dose: 400.0 mg/kg/injection, schedule: Q01DX001 (ip), vehicle: other",2 of 4
O=C(O)c1oc(Br)cc1Br,survivor count,"T/C endpoint: mean survival time, dose: 100.0 mg/kg/injection, schedule: Q04DX003 (ip), vehicle: other",4 of 6
same,survivor count,"T/C endpoint: mean survival time, dose: 200.0 mg/kg/injection, schedule: Q04DX003 (ip), vehicle: other",5 of 6
same,survivor count,"T/C endpoint: mean survival time, dose: 400.0 mg/kg/injection, schedule: Q04DX003 (ip), vehicle: other",3 of 6
O=C1C=C(N2CCCC2)CCC1,survivor count,[7],0 of 6
COC(=O)c1cccc2cn3ccc4c5ccccc5nc-4c3cc12,survivor count,"T/C endpoint: mean survival time, dose: 200.0 mg/kg/injection, schedule: Q01DX001 (ip), vehicle: saline with Tween-80",3 of 3
O=P(N(CCCl)CCCl)(N1CCCCC1)N1CCCCC1,survivor count,"T/C endpoint: mean survival time, dose: 400.0 mg/kg/injection, schedule: Q01DX Z (ip), vehicle: saline",2 of 6
COc1ccc2ccccc2n1,survivor count,[6],5 of 6
same,survivor count,[2],3 of 6
CNC(=S)N/N=C1/C(=N\NC(=S)NC)C(=O)OC1C(O)CO (stereo unspecified),survivor count,[6],4 of 6
Oc1cc(O)c(CN2CCCCC2)cc1CN1CCCCC1,survivor count,[8],1 of 6
same,survivor count,"T/C endpoint: mean survival time, dose: 400.0 mg/kg/injection, schedule: Q01DX001 (ip), vehicle: saline",0 of 6
C#CC(=O)OCC,survivor count,"T/C endpoint: mean survival time, dose: 100.0 mg/kg/injection, schedule: Q01DX001 (ip), vehicle: saline with Tween-80",1 of 6
CNCCCNCC1C(c2ccccc2)C1c1ccccc1 (stereo unspecified),survivor count,[9],1 of 3
same,survivor count,[10],0 of 3
same,survivor count,[11],0 of 3
CC(CBr)C(=O)O (stereo unspecified),survivor count,[12],3 of 3
CCOc1ccc(NC(C)=O)c(OC(C)=O)c1,survivor count,[13],6 of 6
same,survivor count,[14],2 of 6
NC1=NCc2ccccc21,survivor count,[9],1 of 3
same,survivor count,[10],0 of 3
same,survivor count,[11],0 of 3
O=C(O)[C@H]1CCCC[C@H]1C(=O)O,survivor count,"T/C endpoint: mean survival time, dose: 100.0 mg/kg/injection, schedule: Q04DX003 (ip), vehicle: Klucel (hydroxypropylcellulose) (HPC)",6 of 6
O=S(=O)(F)c1cc(Cl)c(S)cc1Cl,survivor count,"T/C endpoint: mean survival time, dose: 200.0 mg/kg/injection, schedule: Q04DX003 (ip), vehicle: Klucel (hydroxypropylcellulose) (HPC)",0 of 6
same,survivor count,"T/C endpoint: mean survival time, dose: 400.0 mg/kg/injection, schedule: Q04DX003 (ip), vehicle: Klucel (hydroxypropylcellulose) (HPC)",0 of 6
NC(CC(O)c1ccccc1)c1ccccc1 (stereo unspecified),survivor count,[13],0 of 6
same,survivor count,[14],0 of 6
O=[N+]([O-])c1ccc(C[n+]2ccc3ccccc3c2)cc1,survivor count,"T/C endpoint: mean survival time, dose: 100.0 mg/kg/injection, schedule: Q04DX003 (ip), vehicle: acetone",4 of 6
same,survivor count,"T/C endpoint: mean survival time, dose: 200.0 mg/kg/injection, schedule: Q04DX003 (ip), vehicle: acetone",0 of 6
same,survivor count,"T/C endpoint: mean survival time, dose: 400.0 mg/kg/injection, schedule: Q04DX003 (ip), vehicle: acetone",0 of 6
COc1ccc(N(N=O)C(C)=O)cc1,survivor count,"T/C endpoint: mean survival time, dose: 80.0 mg/kg/injection, schedule: Q01DX001 (ip), vehicle: saline",0 of 4
Cc1ccc(S(=O)(=O)NC(CSCc2ccccc2)C(=O)O)cc1 (stereo unspecified),survivor count,[6],4 of 6
Cc1cccc(C[Si](C)C)c1,survivor count,[8],6 of 6
O=[N+]([O-])/C=C/c1ccccc1Cl,survivor count,"T/C endpoint: mean survival time, dose: 40.0 mg/kg/injection, schedule: Q01DX009 (ip), vehicle: other",0 of 6
same,survivor count,"T/C endpoint: mean survival time, dose: 100.0 mg/kg/injection, schedule: Q01DX009 (ip), vehicle: saline with Tween-80",2 of 6
same,survivor count,"T/C endpoint: mean survival time, dose: 120.0 mg/kg/injection, schedule: Q04DX003 (ip), vehicle: other",4 of 6
same,survivor count,"T/C endpoint: mean survival time, dose: 150.0 mg/kg/injection, schedule: Q01DX001 (ip), vehicle: saline",3 of 6
same,survivor count,"T/C endpoint: mean survival time, dose: 150.0 mg/kg/injection, schedule: Q01DX009 (sc), vehicle: olive oil, sesame oil, peanut oil",1 of 6
same,survivor count,[1],0 of 6
same,survivor count,[7],0 of 6
NC(CS)=NCc1ccccc1,survivor count,[9],0 of 3
same,survivor count,[10],0 of 3
same,survivor count,[11],0 of 3
COC(=O)/C(=C1\C=C(c2ccccc2)C(=O)O1)c1ccccc1,survivor count,[15],0 of 3 and 2 of 6
same,survivor count,[4],0 of 6
same,survivor count,[5],0 of 6
CC(=O)C(C=NCCN=CC(C(C)=O)C(C)=O)C(C)=O.[Ni],survivor count,[12],3 of 3
CC(C)(CO)CN1CCCCC1,survivor count,[1],3 of 6
C=CC(OC(C)=O)OC(C)=O,survivor count,"T/C endpoint: mean survival time, dose: 14.0 mg/kg/injection, schedule: Q01DX Z (ip), vehicle: carboxymethylcellulose (CMC)",0 of 6
same,survivor count,"T/C endpoint: mean survival time, dose: 21.0 mg/kg/injection, schedule: Q01DX Z (ip), vehicle: carboxymethylcellulose (CMC)",0 of 6
same,survivor count,"T/C endpoint: mean survival time, dose: 50.0 mg/kg/injection, schedule: Q04DX003 (ip), vehicle: saline with Tween-80",0 of 6
O=C1C(Cl)=C(Nc2ccc3cn[nH]c3c2)C(=O)c2ccccc21,survivor count,"T/C endpoint: mean survival time, dose: 400.0 mg/kg/injection, schedule: Q01DX001 (ip), vehicle: carboxymethylcellulose (CMC)",1 of 4
[Co].[NH-]CC[N-]CCO.[NH-]CC[N-]CCO,survivor count,"T/C endpoint: mean survival time, dose: 100.0 mg/kg/injection, schedule: Q01DX009 (ip), vehicle: saline",1 of 6
same,survivor count,"T/C endpoint: mean survival time, dose: 200.0 mg/kg/injection, schedule: Q04DX003 (ip), vehicle: saline",4 of 6
same,survivor count,"T/C endpoint: mean survival time, dose: 400.0 mg/kg/injection, schedule: Q04DX003 (ip), vehicle: saline",0 of 6
O=C(O)CCCC[P+](c1ccccc1)(c1ccccc1)c1ccccc1,survivor count,"T/C endpoint: mean survival time, dose: 400.0 mg/kg/injection, schedule: Q01DX009 (ip), vehicle: saline",2 of 6
C[N+](C)(C)C1(Cc2ccc(F)cc2)c2ccccc2-c2ccccc21,survivor count,"T/C endpoint: mean survival time, dose: 12.5 mg/kg/injection, schedule: Q01DX009 (ip), vehicle: saline with Tween-80",5 of 6
O=C(O)c1ccccc1C(=O)Nc1ccccc1F,survivor count,[15],6 of 6
